Assay results taken from article PMC4947186.
No constants are given. Whether binding was seen depends on the method and setting. In cells and extracts the contact can be indirect. Binding calls can cover weak binding; strength is not graded here. Sequences can lack the tags named with a protein.

Target: GST-RanBP2 C-terminal region (cyclophilin-like domain)
Experiment: pull-down; GST fusions of RanBP2 fragments incubated with flag-SHP protein; bound flag-SHP detected by IB with M2 antibody

B1: flag-SHP protein used in the GST pull-down (protein, UniProt Q62227 1-260)
chain: MSSGQSGVCPCQGSAGRPTILYALLSPSPRTRPVAPASHSHCLCQQQRPVRLCAPHRTCREALDVLAKTVAFLRNLPSFCHLPHEDQRRLLECCWGPLFLLGLAQDAVTFEVAEAPVPSILKKILLEEASSGTQGAQPSDRPQPSLAAVQWLQRCLESFWSLELGPKEYAYLKGTILFNPDVPGLRASCHIAHLQQEAHWALCEVLEPWYPASQGRLARILLMASTLKNIPGTLLVDLFFRPIMGDVDITELLEDMLLLR
- binding: binds
